Source: PubChem BioAssay AID1487 (National Center for Advancing Translational Sciences (NCATS), 2009)
In all, about 200,000 compounds went through this assay and about 25 (0.01%) were called active. Inconclusive results, whose numbers are uncertain, are shown with a selection of clear calls. The call rests on the fitted dose curve; in most records, active means well fitted inhibition curve with a large enough effect in the signal ratio, with a control signal flat (not every such curve was filed as active); inconclusive means small, poorly fitted or top-dose-only effect, or effect the other way, or a change in a side signal; inactive means flat fitted curve, though single readings scatter; the % refers to the signal ratio. A potency beside an inconclusive call is a rough fit, not a confirmed value.

Assay: qHTS Assay for Modulators of Lamin A Splicing
Details: HeLa LMNA splicing GFP/RFP minigene ratio, 48 h; ratio change, negative = inhibition: at 46.1 µM (top of the series) unless noted
How it was run: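 S3 HeLa stable clones carrying a lamin A-EGFP splicing minigene plus DsRed2 were seeded at 600 cells/well in Opti-MEM with 2% FBS, pin-dosed and incubated 48 h at 37°C. Acumen cytometry (488 nm) gave the GFP/RFP total-intensity ratio.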
On the % scale 0 is the no-effect control and ±100 the full control effect; potency means the concentration at half of the fitted maximal effect.

Structure (SMILES) | ratio change, negative = inhibition | Potency
Cc1cc2c(n1-c1ccc(Cl)cc1)CC(C)(C)CC2=O | inactive: 9.75% | 
CC(C)OC(=O)C(C(=O)OC(C)C)=C1SC=CS1 | inconclusive: -4.34% | 
COc1ccc2[nH]c3c(=O)n(Cc4ccco4)cnc3c2c1 | inconclusive: 11% | 
COC(=O)c1sccc1NN1C(=O)c2ccccc2C1=O | inconclusive: 15.2% [at 46 µM] | 
Cc1c(C2CC(=O)N(c3ccccc3)C2=O)[nH]n(-c2ccccc2)c1=O (configuration not stated) | inconclusive: -31% | 
Cc1cc(F)ccc1NCC(=O)Nc1ccccc1Br | inactive: -2.88% | 
Cc1nn(-c2cccc(C(F)(F)F)c2)c(Cl)c1/C=N/Nc1cccc(C(=O)O)c1 | inconclusive: -17% | 
N#CC1=C(SCC(=O)Nc2ccc(C(=O)O)cc2)NC(=O)CC1c1ccco1 (configuration not stated) | inactive: 29.8% [at 46 µM] | 
COc1ccc(-c2csc3ncnc(Nc4cc(OC)cc(OC)c4)c23)cc1 | inconclusive: -24.8% [at 46 µM] | 
CC(C)c1ccc(NC(=O)Cn2cc(S(=O)(=O)Cc3ccccc3Cl)c3ccccc32)cc1 |  | inconclusive: 11.2 µM [inhibitor, partial curve]
CC1CCN(C(=O)CSc2nc3ccccc3nc2Cc2ccccc2)CC1 | inconclusive: 8.06% [at 46 µM] | 
CSc1nc2sc3c(c2c(=O)[nH]1)CCCC3 | inconclusive: 21.9% | 
Cc1ccc(C(NC(=O)N2CCOCC2)=C(Cl)Cl)cc1F | inconclusive: -32.5% | 
CCOc1ccc(CN2C(=O)c3ccccc3C2C(=O)NCCc2ccc(OC)c(OC)c2)cc1 (configuration not stated) | inconclusive: 7.45% [at 46 µM] | 
CCOc1ccc(CNS(=O)(=O)c2ccc3c(c2)CCCN3C(C)=O)cc1 | inconclusive: -3.34% [at 46 µM] | 
CCN1/C(=C/C=C/c2oc3ccc4ccccc4c3[n+]2CC)Oc2ccc3ccccc3c21 | inconclusive: 17.1% [at 46 µM] | 
S=c1[nH]nc(-c2ccco2)n1/N=C/c1cccs1 | inactive: -8.27% | 
COc1ccc(NS(=O)(=O)c2ccc3[nH]c4c(c3c2)CCCCC4)cc1 |  | inconclusive: 22.4 µM [inhibitor, partial curve]
CC(=O)Nc1ccc(NC(=O)COC(=O)Cc2c[nH]c3ccccc23)cc1 | inactive: -3.49% | 
COc1ccc(Oc2ncc(CN3CCN(c4ccccc4)CC3)s2)cc1 |  | inconclusive: 35.5 µM [falling, single point]
CCN(CC)N=Nc1[nH]nc2nc(C)cc(C)c12 |  | inconclusive: 15.8 µM [inhibitor, single point]

Structure (SMILES) | ratio change, negative = inhibition | Potency
CCN(CC)c1ccc(/C=N/NC(=S)NCc2ccco2)cc1 | inconclusive: -34.6% | 
Cc1ccc(C)n1CCN1CCN(CC(=O)Nc2cc(C(F)(F)F)ccc2Cl)CC1 | inconclusive: 40.5% | 
CS(=O)(=O)Nc1cccc(-c2nc(NCc3cccs3)c3ccccc3n2)c1 |  | inconclusive: 35.5 µM [cytotoxic, single point]
CC(C)N(c1ccccc1)c1ccc(NC(=O)CCl)cc1 |  | inconclusive: 35.5 µM [cytotoxic, single point]
Cc1ccc(NC(=O)c2sc(-n3nc(C)c(CCC(C)C)c3C)nc2C)cc1C | inactive: 10.8% [at 46 µM] | 
CCN(CC(=O)NC(C)C)C(=O)C(CCSC)NC(=O)c1ccccc1OC (configuration not stated) | inconclusive: 30.8% [at 46 µM] | 
Cc1ccc(NC(=S)NC(NC(=O)c2ccco2)C(Cl)(Cl)Cl)cc1 (configuration not stated) | inactive: -25.2% | 
Cc1cc(C)c(C#N)c(SCc2ccccc2)n1 | inactive: 20.5% | 
CCCSc1ncccc1C(=O)O | inconclusive: 8.95% [at 46 µM] | 
N#Cc1cc2c(nc1SCC(O)CS(=O)(=O)Cc1ccc(Cl)cc1)CCCC2 (configuration not stated) | inconclusive: 5.96% | 
CNC(=O)COc1ncnc2scc(-c3ccc(F)cc3)c12 | inconclusive: 20.4% [at 46 µM] | 
CCN(CC)C(=O)c1sc(NC(=O)c2ccc(Br)o2)c(C(=O)OC)c1C | inactive: 16.1% | 
CS(=O)(=O)NCC(c1ccco1)N1CCN(c2ccccc2)CC1 (configuration not stated) | inactive: -16.6% [at 46 µM] | 
CC(=O)c1ccc(C(=O)N(CCCN(C)C)c2nc3c(C)c(C)ccc3s2)cc1 | inconclusive: -32% [at 46 µM] | 
COc1ccc(CCNC(=O)Cn2cc(S(=O)(=O)Cc3ccccc3F)c3ccccc32)cc1OC | inactive: 5.4% [at 46 µM] | 
O=C(CN1CCN(Cc2ccccc2)CC1)c1ccc(Br)cc1 | inactive: 18.2% | 
CCOC(=O)c1c(/N=C/N(C)C)sc(/C=N/Nc2ccccc2)c1-c1ccc(Cl)cc1 | inconclusive: 8.33% | 
COc1ccc2cc(N=Cc3nc(-c4ccc(C)cc4)oc3O)cnc2c1 | inconclusive: 2.07% [at 46 µM] | 
COc1ccccc1NC(=O)Nc1ccc(CC#N)cc1 | inconclusive: -19.3% [at 46 µM] | 
CCOC(=O)C1=C(C)OC(N)=C(C#N)C1c1ccc(C)s1 (configuration not stated) | inconclusive: 10.7% [at 46 µM] | 
O=C(NCc1ccc(F)cc1)c1ccc(CS(=O)(=O)c2ccc(Cl)cc2)o1 | inconclusive: -0.864% [at 46 µM] | 

Structure (SMILES) | ratio change, negative = inhibition | Potency
CC(=O)N[C@@H](Cc1ccc(O)cc1)C(=O)O | inconclusive: -16.6% | 
CCOC(=O)c1ccc(NC(=S)Nc2cc(C)cc(C)n2)cc1 |  | inconclusive: 35.5 µM [activator, partial curve]
C[C@@H]1NC(=O)[C@H](CCCN=C(N)N)NC(=O)c2cc([N+](=O)[O-])cc(I)c2OCC[C@@H](C(N)=O)NC1=O | inactive: -0.846% | 
Nc1c(C(=O)c2cccs2)oc2ccccc12 | inactive: -6.65% | 
N#Cc1ccsc1NC(=O)COC(=O)c1cc2ccccc2cc1O | inconclusive: -9.26% | 
CC1(C)CCC=[N+]1[O-] | inconclusive: -3.91% | 
CCOc1ccc(NC(=O)CN2C(=O)S/C(=C/c3cccn3C)C2=O)cc1 | inconclusive: 58.9% [at 46 µM] | 
CCC(CC)C(=O)NC12CC3CC(CC(C3)C1)C2 | inconclusive: -5.39% | 
CSc1nc(N2CCN(c3ccccc3)CC2)cc(N2CCN(c3ccccc3)CC2)n1 | inconclusive: 3.14% [at 46 µM] | 
CCN(C=NC1=NN(c2cccc(C(F)(F)F)c2)CC1)CC | inconclusive: -24.9% | 
Cn1c(Cn2nnc3ccccc32)nnc1SCC(=O)N1c2ccccc2CCc2ccccc21 | inconclusive: 12.1% | 
COC(=O)c1ccc(Cl)c(NC(=O)c2cccc([N+](=O)[O-])c2C)c1 |  | inconclusive: 0.02 µM [rising, full curve, poor fit]
Cc1ccc2[nH]c3c(c2c1)CCCC3=O |  | inconclusive: 7.08 µM [rising, partial curve, poor fit]
O=C(NCc1cccs1)c1ccc(N2CCCCC2)nc1 | inactive: 3.67% | 
O=C(O)/C=C/C(=O)Nc1ccc(C(=O)c2ccccc2)cc1 | inconclusive: -21.7% [at 46 µM] | 
COc1ccc(Cn2nnnc2C(c2cc3ccc(OC)cc3[nH]c2=O)N2CCCCCC2)cc1 (configuration not stated) | inactive: 1.58% | 
CN1CCN(C(c2ccc(F)cc2)c2sc3nc(-c4ccco4)nn3c2O)CC1 (configuration not stated) | inconclusive: 2.98% [at 46 µM] | 
CCc1nc2sccc2c(=O)n1N |  | inconclusive: 0.501 µM [activator, full curve, poor fit]
O=S(=O)(c1ccccc1)N(CC1CO1)c1ccccc1 (configuration not stated) |  | inconclusive: 10 µM [inhibitor, partial curve, poor fit]
Cc1cc(NC(=O)CSc2nc3c([nH]c4ccccc43)c(=O)n2-c2cccc(Cl)c2)no1 | inconclusive: 2.78% [at 46 µM] | 
COc1ccccc1C(=O)NCc1ccc2c(c1)CCN2C(=O)c1ccncc1 | inconclusive: -8.75% [at 46 µM] | 

Structure (SMILES) | ratio change, negative = inhibition | Potency
CC(C)CNC(=S)N1CCC(C(=O)c2ccc3c(c2)OCCO3)CC1 | inconclusive: 8.53% [at 46 µM] | 
O=C(CN(Cc1ccccc1)C1=NCCS1)c1ccccc1 | inactive: -6.09% | 
CC(C)(C)c1ccc(C(=O)NNC(=O)Cc2cccc3ccccc23)cc1 | inactive: 8.6% | 
COc1cc(OC)cc(C2=NCCN2)c1 | inconclusive: 21.8% [at 46 µM] | 
c1ccc(OCCSc2nc3ccccc3o2)cc1 | inconclusive: 8.97% | 
COc1cc(NC(=O)CN(C)S(=O)(=O)c2ccc3[nH]c4c(c3c2)CCCC4)cc(OC)c1OC | inconclusive: -32.2% [at 46 µM] | 
Cc1ccccc1[C@@H](OCCN(C)C)c1ccccc1 | inconclusive: -14.8% | 
Cc1cn2c(=O)cc(COC(=O)c3cccc(NC(=O)COc4ccccc4Cl)c3)nc2s1 | inconclusive: 19.2% [at 46 µM] | 
COc1ccc(NC(=O)CSc2nnc(C3CC3)n2C)cc1 | inconclusive: 12.8% [at 46 µM] | 
CCCN(CCC)C(=O)c1ccccc1C(=O)N(CCC)CCC | inactive: -4.79% | 
C/C(Cc1ccccc1)=N\NC(=O)c1ccc(F)cc1 | inactive: -13.2% | 
C=CCNCCCCOc1ccccc1-c1ccccc1 | inconclusive: -1.19% | 
COCCNC(=O)/C(C#N)=C/c1cc(C)n(-c2ccc(C)cc2)c1C | inconclusive: -31.6% [at 46 µM] | 
CCOC(=O)C1CCN(c2ncnc3c2c(-c2ccccc2)cn3-c2cccc(C)c2)CC1 | inconclusive: -15.3% [at 46 µM] | 
CCc1ccc(CNC(=O)c2sc3ncccc3c2-n2c(C)ccc2C)cc1 | inconclusive: -11.2% [at 46 µM] | 
COc1cccc(OC)c1C(=O)Nc1nc2ccc(S(C)(=O)=O)cc2s1 | inconclusive: -2.83% | 
CCCc1nn2c(=O)cc(COC(=O)c3cccc(NC(=O)COc4ccc(F)cc4)c3)nc2s1 | inactive: -4.47% [at 46 µM] | 
O=C(Nc1cnn(Cc2ccc(Cl)c(Cl)c2)c1)C12CC3CC(CC(C3)C1)C2 | inconclusive: -36.3% | 
COc1cccc(NC(=O)NCc2ccc3c(c2)CCN3C(=O)c2ccccc2)c1 | inconclusive: -13.6% [at 46 µM] | 

Among those listed so far, 3 have bromine:
Structure (SMILES) | ratio change, negative = inhibition | Potency
Cc1cc(F)ccc1NCC(=O)Nc1ccccc1Br | inactive: -2.88% | 
CCN(CC)C(=O)c1sc(NC(=O)c2ccc(Br)o2)c(C(=O)OC)c1C | inactive: 16.1% | 
O=C(CN1CCN(Cc2ccccc2)CC1)c1ccc(Br)cc1 | inactive: 18.2% | 

Two entries from above in a different format.
Structure (SMILES),"ratio change, negative = inhibition",Potency
CCCN(CCC)C(=O)c1ccccc1C(=O)N(CCC)CCC,inactive: -4.79%,
C/C(Cc1ccccc1)=N\NC(=O)c1ccc(F)cc1,inactive: -13.2%,
